Source: PubChem BioAssay AID445 (National Center for Advancing Translational Sciences (NCATS), 2006)
Several values for one entry are separate records, joined by “and”; a condition that tells them apart may be missing. Identical values can stand only once. This is one part of the list. Further columns of the screen follow, without active or inactive calls. Compounds called inactive in the main read-out are mostly missing here. The note in brackets gives the kind of curve behind each potency; many fits are weak.

Experiment: IkB Signaling
Settings: ABC-DLBCL IkBa-CBG/CBR dual luciferase ratio (green luciferase fused to IkBa over red control in OCI-Ly3 lymphoma cells), 4 h
In short: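 In this assay, an IκBα–CBG68 fusion accumulates when IKK-driven degradation is blocked; native CBR normalizes for cell number. OCI-Ly3 cells were treated 4 h with compound and doxycycline, then green and red light read after Chroma-Glo addition.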

[1] = measured here: control luc red channel unless noted

## COc1cc(OC)c(OC)cc1CN1CCc2nc(N3CCN(c4ncccn4)CC3)ncc2C1
[1]
  AC50: 15.8 µM [falling, partial curve, poor fit]

## CCN1CCN(C(=O)c2ccc3c(c2)N(Cc2cccc(Cl)c2)C(=O)c2ccccc2S3(=O)=O)CC1
[1]
  AC50: 10 µM [falling, partial curve]

## COc1ccc(-c2noc(C3CC(=O)N(c4ccc(C)c(F)c4)C3)n2)c(OC)c1 (stereo unspecified)
[1]
  AC50: 39.8 µM [falling, single point]

## O=C(Nc1ccc(C(F)(F)F)cc1)C1CCCN1S(=O)(=O)c1cccc2cccnc12 (stereo unspecified)
[1]
  AC50: 12.6 µM [falling, partial curve]

## Cc1cc(C)n(-c2nnc(C)n2/N=C/c2cc(Br)ccc2OCc2ccccc2)n1
[1]
  AC50: 10 µM [falling, partial curve]

## COc1ccc(-c2nnc(Nc3ccc(OCC(N)=O)cc3)c3ccccc23)cc1
[1]
  AC50: 20 µM [falling, single point]

## O=C(CSc1nc(=O)[nH]c2c1CCCC2)Nc1cc(C(F)(F)F)ccc1Cl
[1]
  AC50: 31.6 µM [falling, single point]

## COc1cc([C@H]2c3cc4c(cc3[C@@H](O)[C@@H]3COC(=O)[C@H]23)OCO4)cc(OC)c1OC
Measured here: IkB-luc green channel
  AC50: 31.6 nM [rising, full curve] and 25.1 nM [rising, full curve]
Measured here: control luc red channel
  AC50: 15.8 nM [rising, full curve] and 20 nM [rising, full curve]

## Cc1cc(C)n(-c2nc3ccccc3nc2Nc2cccc(C(F)(F)F)c2)n1
[1]
  AC50: 10 µM [falling, partial curve]

## O=C1CCSC2(C(=O)N(Cc3ccc(F)cc3)c3ccccc32)N1c1ccccc1 (stereo unspecified)
[1]
  AC50: 31.6 µM [falling, partial curve]

## O=C(c1ccc(COc2ccccc2Cl)o1)N1CCN(Cc2ccc3c(c2)OCO3)CC1
[1]
  AC50: 15.8 µM [falling, partial curve]

## Cc1nc2cc(-c3cccc(F)c3)nn2c(C)c1CCC(=O)NC1CCCCC1
[1]
  AC50: 0.251 µM [falling, full curve]

## COc1ccc(C(=O)CCC(=O)Nc2cccc(C(C)=O)c2)cc1
[1]
  AC50: 31.6 µM [falling, single point]

## Cc1ccc(Cn2c(=O)n(Cc3ccc(Cl)cc3)c(=O)c3cccnc32)cc1
[1]
  AC50: 0.316 µM [rising, partial curve]

## Cc1cc2oc(C(=O)Nc3nc(-c4ccccc4)ns3)c(C)c2cc1Cl
[1]
  AC50: 39.8 µM [falling, single point]

## CC(=O)c1ccc(NS(=O)(=O)c2ccc3[nH]c4c(c3c2)CCCCCC4)cc1
[1]
  AC50: 39.8 µM [falling, single point]

## CN1CCN(CCCN2c3ccccc3Sc3ccc(Cl)cc32)CC1
[1]
  AC50: 15.8 µM [falling, partial curve, poor fit] [measured here: IkB-luc green channel]

## CCCCN(C)CCNC(=O)C1CCN(c2nc3ccc(CC)cc3s2)CC1
[1]
  AC50: 15.8 µM [falling, partial curve]

## COc1ccc(N2CCN(C(=O)c3cccc(Cn4cc(Cl)cn4)c3)CC2)cc1
[1]
  AC50: 12.6 µM [falling, partial curve]

## Cc1ccc(C)n1-n1c(C)nc2sc3c(c2c1=O)CCCCC3
[1]
  AC50: 31.6 µM [falling, single point]

## CCOC(=O)c1ccc(Nc2cc(C)nc(N3CCOCC3)n2)cc1
[1]
  AC50: 12.6 µM [falling, partial curve]

## COc1ccc(C(c2c(O)cc(C)n(Cc3ccco3)c2=O)N2CCN(c3ccccc3)CC2)cc1 (stereo unspecified)
[1]
  AC50: 15.8 µM [falling, partial curve]

## Cc1ccccc1-n1nc(CO)c(C(=O)NCCc2ccccc2)n1
[1]
  AC50: 39.8 µM [falling, single point]

## CC1CCc2c(sc(NC(=O)c3ccccc3)c2C(=O)Nc2ccccc2)C1 (stereo unspecified)
[1]
  AC50: 0.251 µM [falling, full curve]

## COc1ccc(OC)c(CNc2ncnc3onc(-c4ccc(Cl)cc4)c23)c1
[1]
  AC50: 3.16 µM [rising, single point]

## CCC(c1nnnn1CCc1ccccc1)N(Cc1ccco1)Cc1cc2cc(C)cc(C)c2[nH]c1=O (stereo unspecified)
[1]
  AC50: 10 µM [falling, partial curve]

## COc1ccc(CCNC(=O)c2cc3c(=O)n4ccccc4nc3n2C)cc1
[1]
  AC50: 12.6 µM [falling, partial curve]

## COc1ccc(NC(=O)Cn2cc(S(=O)(=O)c3ccccc3)c(=O)c3cc(C)ccc32)cc1Cl
[1]
  AC50: 7.94 µM [rising, single point]

## Cc1ccc2oc(-c3ccc(NC(=O)c4cccnc4)cc3)nc2c1
[1]
  AC50: 15.8 µM [falling, partial curve]

## COc1cccc(N2CCN(C(=O)c3ccc4c(Cl)c5c(nc4c3)CCCC5)CC2)c1
[1]
  AC50: 12.6 µM [falling, partial curve]

## CCC(=O)N1CCc2cc(Br)cc(S(=O)(=O)N3CCC(C(=O)Nc4cccc(C)c4)CC3)c21
[1]
  AC50: 1.26 µM [falling, full curve]

## O=C(CSc1nnc2scc(-c3ccccc3)n12)N1CCN(Cc2ccccc2)CC1
[1]
  AC50: 12.6 µM [falling, partial curve]

## COc1cccc(NC(=O)Cn2nc(-c3ccncc3)ccc2=O)c1
[1]
  AC50: 0.2 µM [falling, full curve, poor fit]

## CCOc1ccc(NC(=O)C(=O)NCCc2sc(-c3ccc(C)cc3)nc2C)cc1
[1]
  AC50: 15.8 µM [rising, partial curve]

## CC(C)c1ccc(C(=O)CC2(O)C(=O)N(CCc3ccccc3)c3ccc(Cl)cc32)cc1 (stereo unspecified)
[1]
  AC50: 12.6 µM [falling, partial curve]

## COc1ccc(OC)c(NC(=O)C2CCN(S(=O)(=O)c3c(C)noc3/C=C/c3ccc(C)cc3)CC2)c1
[1]
  AC50: 2.51 µM [falling, full curve]

## CC(C)(C)/C(O)=C(/C#N)c1nc2ccccc2[nH]1
[1]
  AC50: 25.1 µM [falling, single point]

## Cc1cccc(Cn2c(CN3CCC(C(=O)NCc4ccccc4Cl)CC3)cc3ccccc32)c1
[1]
  AC50: 0.398 µM [falling, full curve, poor fit]

## Cc1ccc(C(=O)Nc2cc(-c3nc4cc(Cl)ccc4o3)ccc2C)c(C)c1
[1]
  AC50: 5.01 µM [falling, partial curve]

## COc1ccc(Cn2c(CNS(=O)(=O)c3ccc(Cl)s3)nc3cccnc32)cc1
[1]
  AC50: 1 µM [rising, single point]

## COc1ccc(CN2CCc3nc(N4CCN(c5ccc(F)cc5)CC4)ncc3C2)c(OC)c1OC
[1]
  AC50: 20 µM [falling, single point]

## O=C(c1cnn(-c2ccc(F)cc2)c1-n1cccc1)N1CCN(c2cccc(Cl)c2)CC1
[1]
  AC50: 12.6 µM [falling, partial curve]

## Cc1cccc(OCCCCc2c(C)n[nH]c2C)c1C
[1]
  AC50: 39.8 µM [rising, single point] [measured here: IkB-luc green channel]

## Cc1cc(OCC(=O)Nc2ccc(C(=O)OC3CCCCC3)cc2)ccc1Cl
[1]
  AC50: 25.1 µM [rising, partial curve, poor fit]

## Fc1ccc(-c2nnn3c2nc(NCc2ccccc2)c2ccccc23)cc1
[1]
  AC50: 0.1 µM [falling, full curve]

## Cc1ccccc1N(CC(=O)Nc1ccccc1C(=O)O)S(C)(=O)=O
[1]
  AC50: 1.58 µM [falling, full curve]

## O=C1CN(C(=O)c2c(F)cccc2Cl)C(c2ccc(F)cc2)c2cc(Br)ccc2N1 (stereo unspecified)
[1]
  AC50: 20 µM [falling, partial curve]

## CN(C(=O)CSc1nc2ccc(NC(=O)c3cccs3)cc2s1)c1ccccc1
[1]
  AC50: 10 µM [falling, partial curve]

## Cc1c(N=c2c(=O)c3ccccc3c2=O)c(=O)n(-c2ccccc2)n1C
[1]
  AC50: 39.8 µM [rising, single point] [measured here: IkB-luc green channel]

## COC(=O)c1cccc(CN2C(=O)SC(Nc3ccccc3C)C2=O)c1 (stereo unspecified)
[1]
  AC50: 12.6 µM [falling, single point]

## CCc1ccc(CNC(=O)C2CCN(C(=O)c3ccc(-n4c(C)cc5ccccc54)s3)CC2)cc1
[1]
  AC50: 15.8 µM [falling, partial curve]

## CC(C)C[C@H](NC(=O)OC(C)(C)C)c1nnc(SCC(=O)Nc2ccc(Br)cc2)o1
[1]
  AC50: 12.6 µM [falling, partial curve]

## Cc1ccc(NC(=O)C2CCCN(S(=O)(=O)c3ccc4c(c3)CCCC(=O)N4)C2)cc1N(C)C (stereo unspecified)
[1]
  AC50: 12.6 µM [falling, partial curve]

## CCCn1c(-c2ccc(OC)cc2)nc2ccccc21
[1]
  AC50: 12.6 µM [falling, partial curve]

## COc1cccc(NC(=O)c2ccccc2-c2nc(-c3ccc(Cl)cc3)no2)c1
[1]
  AC50: 3.98 µM [falling, full curve, poor fit]

## Cc1ccc(-c2ccc(CCC(=O)O)n2-c2ccc(C)c(Cl)c2)cc1
[1]
  AC50: 15.8 µM [falling, partial curve]

## O=C1CCSC2(C(=O)N(Cc3ccccc3)c3ccccc32)N1c1ccccc1 (stereo unspecified)
[1]
  AC50: 12.6 µM [falling, partial curve]

## CC(=O)N1c2ccc(S(=O)(=O)NCC3CCC(C(=O)Nc4cccc(C)c4)CC3)cc2CC1C (stereo unspecified)
[1]
  AC50: 25.1 µM [falling, single point]

## CCc1ccc2nc(N3CCC(C(=O)NCCC(C)C)CC3)sc2c1
[1]
  AC50: 15.8 µM [falling, partial curve]

## CCN(Cc1ccccc1)S(=O)(=O)c1ccc(N2CCCCS2(=O)=O)cc1
[1]
  AC50: 31.6 µM [falling, single point]
